Source: patent publication US10894040B2, “S1P modulating agents” (BIOGEN MA INC., priority 2011, dated 2021)
Some of these results come from one statement about several compounds together. Some ranges recur; such a range may be that of the whole group of compounds.

Sequences of proteins named here, by UniProt entry; tags and fusion partners are left off. A change or cut given only in a name is not applied to a line headed by its entry.
UniProt P21453, whole entry: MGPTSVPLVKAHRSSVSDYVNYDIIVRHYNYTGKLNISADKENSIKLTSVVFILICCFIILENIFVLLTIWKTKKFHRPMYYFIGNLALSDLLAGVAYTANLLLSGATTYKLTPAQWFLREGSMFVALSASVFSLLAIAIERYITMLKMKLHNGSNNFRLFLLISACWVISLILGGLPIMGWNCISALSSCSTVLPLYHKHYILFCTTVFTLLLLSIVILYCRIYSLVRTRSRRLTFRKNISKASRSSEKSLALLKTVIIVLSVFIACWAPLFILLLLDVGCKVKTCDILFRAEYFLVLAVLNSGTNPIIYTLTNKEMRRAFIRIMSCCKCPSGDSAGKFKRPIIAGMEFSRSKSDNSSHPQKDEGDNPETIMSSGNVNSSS
UniProt Q9H228: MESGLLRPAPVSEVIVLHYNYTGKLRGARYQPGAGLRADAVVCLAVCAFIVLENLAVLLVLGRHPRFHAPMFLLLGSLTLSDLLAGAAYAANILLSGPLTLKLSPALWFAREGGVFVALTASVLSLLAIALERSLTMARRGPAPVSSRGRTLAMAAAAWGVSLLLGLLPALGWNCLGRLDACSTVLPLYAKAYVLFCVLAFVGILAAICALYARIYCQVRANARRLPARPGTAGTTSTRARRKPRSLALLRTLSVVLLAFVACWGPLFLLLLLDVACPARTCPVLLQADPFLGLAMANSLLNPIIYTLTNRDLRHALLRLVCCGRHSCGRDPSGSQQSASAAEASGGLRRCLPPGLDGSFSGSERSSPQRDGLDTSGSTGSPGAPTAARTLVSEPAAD

How the values were obtained:
Assay type in all cases: cell-based
S1P4 = molecular target: T1, S1P4 (Homo sapiens, UniProt O95977); assay: S1P receptor activity assay, calcium flux, antagonist format; conditions: EC80 of reference agonist, range bounds printed with their own units (nM, μM)
T1 sequence (O95977 1-384): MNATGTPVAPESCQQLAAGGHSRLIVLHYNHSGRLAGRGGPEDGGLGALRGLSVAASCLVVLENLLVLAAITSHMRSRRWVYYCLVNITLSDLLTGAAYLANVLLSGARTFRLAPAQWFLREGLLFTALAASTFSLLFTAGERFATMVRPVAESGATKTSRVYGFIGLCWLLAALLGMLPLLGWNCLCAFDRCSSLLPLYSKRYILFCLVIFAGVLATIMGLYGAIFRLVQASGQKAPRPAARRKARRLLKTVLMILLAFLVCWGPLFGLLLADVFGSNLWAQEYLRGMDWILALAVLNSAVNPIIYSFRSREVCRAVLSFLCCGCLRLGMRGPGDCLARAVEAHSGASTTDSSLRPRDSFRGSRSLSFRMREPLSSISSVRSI

S1P1 = S1P1 (Homo sapiens, UniProt P21453); assay: S1P receptor activity assay, calcium flux, agonist format; conditions: range bounds printed with their own units (nM, μM)
S1P5 = S1P5 (Homo sapiens, UniProt Q9H228); assay: S1P receptor activity assay, calcium flux, antagonist format; conditions: EC80 of reference agonist, range bounds printed with their own units (nM, μM)

Compound	S1P4 antagonist activity, IC50 values (S1P4) [nM]	EC50 (S1P1) [nM]	IC50 (S1P5) [nM]
CCC(C)(C)C1CCC(Oc2ccc3cc(CN4CCC(C(=O)O)CC4)ccc3c2)CC1 (mixture of isomers) [Example 153, 1-((6-((4-(tert-pentyl)cyclohexyl)oxy)naphthalen-2-yl)methyl)piperidine-4-carboxylic acid]	10 to 10000	50 to 10000	–
CC1CCC(Oc2ccc3cc(CN4CCC(C(=O)O)CC4)ccc3c2)CC1C (mixture of isomers) [Example 161, 1-((6-((3,4-dimethylcyclohexyl)oxy)naphthalen-2-yl)methyl)piperidine-4-carboxylic acid]	–	–	100 to 5000
CC(C)(C)[C@H]1CC[C@H](Oc2ccc3nc(CN4CCC(C(=O)O)CC4)ncc3c2)CC1 [Example 15, 1-((6-(trans-4-tert-Butylcyclohexyloxy)quinazolin-2-yl)methyl)piperidine-4-carboxylic acid]	10 to 10000	–	–
CC(C)(C)[C@H]1CC[C@@H](Oc2ccc3cc(CN4CCC(C(=O)O)CC4)ccc3c2)CC1 [Example 26, 1-((6-(cis-4-tert-Butylcyclohexyloxy)naphthalen-2-yl)methyl)piperidine-4-carboxylic acid]	10 to 10000	–	–
O=C(O)C1CCN(Cc2ccc3cc(OC4CCC(C(F)(F)F)CC4)ccc3c2)CC1 (centres unmarked) [Example 28, 1-((6-(4-(Trifluoromethyl)cyclohexyloxy)naphthalen-2-yl)methyl)piperidine-4-carboxylic acid]	10 to 10000	–	100 to 5000
CCC1CCC(Oc2ccc3cc(CN4CCC(C(=O)O)CC4)ccc3c2)CC1 (centres unmarked) [Example 30, 1-((6-(4-Ethylcyclohexyloxy)naphthalen-2-yl)methyl)piperidine-4-carboxylic acid]	10 to 10000	–	–
CC[C@H]1CC[C@@H](Oc2ccc3cc(CN4CCC(C(=O)O)CC4)ccc3c2)CC1 [Example 36, 1-((6-(cis-4-Ethylcyclohexyloxy)naphthalen-2-yl)methyl)piperidine-4-carboxylic acid]	10 to 10000	–	–
CC[C@H]1CC[C@H](Oc2ccc3cc(CN4CCC(C(=O)O)CC4)ccc3c2)CC1 [Example 38, 1-((6-(trans-4-Ethylcyclohexyloxy)naphthalen-2-yl)methyl)piperidine-4-carboxylic acid]	10 to 10000	–	100 to 5000
CCC1(C(=O)O)CCN(Cc2ccc3cc(O[C@H]4CC[C@H](C(C)(C)C)CC4)ccc3c2)CC1 [Example 56, 1-[6-(4-tert-Butyl-cyclohexyloxy)-naphthalen-2-ylmethyl]-4-ethyl-piperidine-4-carboxylic acid]	10 to 10000	50 to 10000	–
CCCC1(C(=O)O)CCN(Cc2ccc3cc(O[C@H]4CC[C@H](C(C)(C)C)CC4)ccc3c2)CC1 [Example 57, 1-[6-(4-tert-Butyl-cyclohexyloxy)-naphthalen-2-ylmethyl]-4-propyl-piperidine-4-carboxylic acid]	10 to 10000	–	–
CC(C)(C)[C@H]1CC[C@H](Oc2ccc3cc(CN4CCCC(C(=O)O)CC4)ccc3c2)CC1 (some centres unmarked) [Example 60, 1-[6-(4-tert-Butyl-cyclohexyloxy)-naphthalen-2-ylmethyl]-perhydro-azepine-4-carboxylic acid]	10 to 10000	50 to 10000	–
CC(C)(C)[C@H]1CC[C@H](Oc2ccc3cc(CN4CCC(O)(C(=O)O)CC4)ccc3c2)CC1 [Example 61, 1-[6-(4-tert-Butyl-cyclohexyloxy)-naphthalen-2-ylmethyl]-4-hydroxy-piperidine-4-carboxylic acid]	10 to 10000	50 to 10000	–
CC(C)(C)[C@H]1CC[C@H](Oc2ccc3cc(CN4CCC(C(=O)O)CC4)ncc3c2)CC1 [Example 75, 1-[7-(trans-4-tert-Butyl-cyclohexyloxy)-isoquinolin-3-ylmethyl]-piperidine-4-carboxylic acid]	10 to 10000	50 to 10000	–
CC1(C(=O)O)CCN(Cc2ccc3cc(O[C@H]4CC[C@H](C(C)(C)C)CC4)ccc3c2)CC1 [Example 77, 1-((6-(trans-4-tert-Butylcyclohexyloxy)naphthalen-2-yl)methyl)-4-methylpiperidine-4-carboxylic acid]	10 to 10000	50 to 10000	–
CC1(C)CCC(Oc2ccc3cc(CN4CCC(C(=O)O)CC4)ccc3c2)CC1 [Example 104, 1-((6-((4,4-dimethylcyclohexyl)oxy)naphthalen-2-yl)methyl)piperidine-4-carboxylic acid]	10 to 10000	–	100 to 5000
O=C(O)C1CCN(Cc2ccc3cc(O[C@H]4CC[C@H](C(F)(F)F)CC4)ccc3n2)CC1 [Example 133, 1-((6-((trans-4-(trifluoromethyl)cyclohexyl)oxy)quinolin-2-yl)methyl)piperidine-4-carboxylic acid]	10 to 10000	–	–

Compound	S1P4 antagonist activity, IC50 values (S1P4) [nM]	EC50 (S1P1) [nM]	IC50 (S1P5) [nM]
O=C(O)C1CCN(Cc2ccc3cc(OC4CCC5(CCC5)CC4)ccc3n2)CC1 [Example 137, 1-((6-(spiro[3.5]nonan-7-yloxy)quinolin-2-yl)methyl)piperidine-4-carboxylic acid]	10 to 10000	–	100 to 5000
CC[C@H]1CC[C@@H](Oc2ccc3nc(CN4CCC(C(=O)O)CC4)ccc3c2)CC1 [Example 141, 1-((6-((cis-4-ethylcyclohexyl)oxy)quinolin-2-yl)methyl)piperidine-4-carboxylic acid]	10 to 10000	–	100 to 5000
O=C(O)C1CCN(Cc2ccc3cc(OC4CCC5(CC4)CC5)ccc3c2)CC1 [Example 143, 1-((6-(spiro[2.5]octan-6-yloxy)naphthalen-2-yl)methyl)piperidine-4-carboxylic acid]	10 to 10000	–	100 to 5000
CC1CC(Oc2ccc3cc(CN4CCC(C(=O)O)CC4)ccc3c2)CC(C)(C)C1 (centres unmarked) [Example 147, 1-((6-((3,3,5-trimethylcyclohexyl)oxy)naphthalen-2-yl)methyl)piperidine-4-carboxylic acid]	10 to 10000	–	–
CC(C)[C@H]1CC[C@@H](Oc2ccc3nc(CN4CCC(C(=O)O)CC4)ccc3c2)CC1 [Example 149, 1-((6-((cis-4-isopropylcyclohexyl)oxy)quinolin-2-yl)methyl)piperidine-4-carboxylic acid]	10 to 10000	–	100 to 5000
CCOC[C@H]1CC[C@@H](Oc2ccc3cc(CN4CCC(C(=O)O)CC4)ccc3c2)CC1 [Example 155, 1-((6-((cis-4-(ethoxymethyl)cyclohexyl)oxy)naphthalen-2-yl)methyl)piperidine-4-carboxylic acid]	10 to 10000	–	100 to 5000
COC[C@H]1CC[C@@H](Oc2ccc3cc(CN4CCC(C(=O)O)CC4)ccc3c2)CC1 [Example 163, 1-((6-((cis-4-(methoxymethyl)cyclohexyl)oxy)naphthalen-2-yl)methyl)piperidine-4-carboxylic acid]	10 to 10000	–	–
CC1CCCC1Oc1ccc2cc(CN3CCC(C(=O)O)CC3)ccc2c1 (centres unmarked) [Example 191, 1-((6-((2-methylcyclopentyl)oxy)naphthalen-2-yl)methyl)piperidine-4-carboxylic acid]	10 to 10000	–	100 to 5000
CCOC(=O)C1CCN(Cc2ccc3cc(OC4CCC(C(C)(C)O)CC4)ccc3c2)CC1 (centres unmarked) [Example 192, ethyl 1-((6-((4-(2-hydroxypropan-2-yl)cyclohexyl)oxy)naphthalen-2-yl)methyl)piperidine-4-carboxylate]	10 to 10000	–	100 to 5000
CC1CCC(Oc2ccc3cc(CN4CCC(C(=O)O)CC4)ccc3c2)C1 (centres unmarked) [Example 195, 1-((6-((3-methylcyclopentyl)oxy)naphthalen-2-yl)methyl)piperidine-4-carboxylic acid]	10 to 10000	–	100 to 5000
O=C(O)C1CCN(Cc2ccc3cc(OC4CC5CC5C4)ccc3c2)CC1 (centres unmarked) [Example 197, 1-((6-(bicyclo[3.1.0]hexan-3-yloxy)naphthalen-2-yl)methyl)piperidine-4-carboxylic acid]	10 to 10000	–	100 to 5000
CC(C)[C@H]1CC[C@H](Oc2ccc3cc(CN4CCC(C(=O)O)CC4)ccc3c2)CC1 [Example 199, 1-((6-((trans-4-isopropylcyclohexyl)oxy)naphthalen-2-yl)methyl)piperidine-4-carboxylic acid]	10 to 10000	–	100 to 5000
CC1(C)CCC(Oc2ccc3cc(CN4CCCC(C(=O)O)C4)ccc3c2)CC1 (centres unmarked) [Example 210, 1-((6-((4,4-dimethylcyclohexyl)oxy)naphthalen-2-yl)methyl)piperidine-3-carboxylic acid]	10 to 10000	–	–
CC1(C)CCC(Oc2ccc3cc(CN4CCC(C)(C(=O)O)CC4)ccc3c2)CC1 [Example 212, 1-((6-((4,4-dimethylcyclohexyl)oxy)naphthalen-2-yl)methyl)-4-methylpiperidine-4-carboxylic acid]	10 to 10000	–	–
CCC1(C(=O)O)CCN(Cc2ccc3cc(OC4CCC(C)(C)CC4)ccc3c2)CC1 [Example 214, 1-((6-((4,4-dimethylcyclohexyl)oxy)naphthalen-2-yl)methyl)-4-ethylpiperidine-4-carboxylic acid]	10 to 10000	–	–
